Here are results for 3 substances from PMC5595348.

The target in assay [1] is T1, TLR7 (endogenous) (human (endogenous in THP-1)) (UniProt Q9NYK1).
T1 sequence: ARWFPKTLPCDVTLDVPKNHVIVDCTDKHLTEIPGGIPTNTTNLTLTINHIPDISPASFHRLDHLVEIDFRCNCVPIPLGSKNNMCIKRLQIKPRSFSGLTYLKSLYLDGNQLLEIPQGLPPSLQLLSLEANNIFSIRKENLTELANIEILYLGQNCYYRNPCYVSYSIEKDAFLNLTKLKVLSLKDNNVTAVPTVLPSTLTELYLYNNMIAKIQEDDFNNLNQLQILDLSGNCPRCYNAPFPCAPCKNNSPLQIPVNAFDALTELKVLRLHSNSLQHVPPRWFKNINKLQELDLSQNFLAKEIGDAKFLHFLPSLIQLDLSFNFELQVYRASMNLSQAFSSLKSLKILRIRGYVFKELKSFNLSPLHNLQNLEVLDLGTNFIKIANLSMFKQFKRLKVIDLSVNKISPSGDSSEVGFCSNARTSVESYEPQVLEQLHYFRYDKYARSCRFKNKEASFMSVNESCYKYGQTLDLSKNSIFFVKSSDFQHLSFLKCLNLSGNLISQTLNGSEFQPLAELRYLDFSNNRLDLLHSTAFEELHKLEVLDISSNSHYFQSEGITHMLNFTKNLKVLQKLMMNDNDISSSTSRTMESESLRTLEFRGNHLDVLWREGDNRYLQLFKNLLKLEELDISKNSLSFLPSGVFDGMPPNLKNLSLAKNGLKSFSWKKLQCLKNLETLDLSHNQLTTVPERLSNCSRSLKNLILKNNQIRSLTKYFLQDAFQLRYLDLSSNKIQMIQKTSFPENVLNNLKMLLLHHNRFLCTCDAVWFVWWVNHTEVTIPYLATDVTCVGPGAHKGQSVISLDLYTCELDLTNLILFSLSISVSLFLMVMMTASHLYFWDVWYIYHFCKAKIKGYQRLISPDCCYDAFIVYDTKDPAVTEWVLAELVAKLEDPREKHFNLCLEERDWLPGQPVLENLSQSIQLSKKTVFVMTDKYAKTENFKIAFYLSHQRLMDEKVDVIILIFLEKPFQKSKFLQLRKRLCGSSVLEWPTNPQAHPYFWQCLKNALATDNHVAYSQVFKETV
In words: co-IP; endogenous proteins; macrophages treated with R848 (100 ng/ml) for indicated times, separated into cytosol (S100K) and membrane (P100K) fractions by 100,000 g ultracentrifugation; fractions immunoprecipitated (TLR7) and analysed by Western blot. In general terms: Immunoblotting shows a protein as a band on a membrane.

The target in assay [2] is T1, TLR7 (endogenous) (human (endogenous in THP-1)). In words: co-IP; endogenous proteins; macrophages derived from THP-1 cells stimulated with R848 (100 ng/ml) or infected with EV71 (MOI = 5) for various times, also after transfection of siR-HRS or siR-NC; lysed in RIPA buffer; immunoprecipitated with rabbit anti-TLR7 or normal rabbit IgG and protein G …; Western blot.
The target of assay [3] is T2, Flag-TLR7 fusion protein (human) (UniProt Q9NYK1).
T2 sequence: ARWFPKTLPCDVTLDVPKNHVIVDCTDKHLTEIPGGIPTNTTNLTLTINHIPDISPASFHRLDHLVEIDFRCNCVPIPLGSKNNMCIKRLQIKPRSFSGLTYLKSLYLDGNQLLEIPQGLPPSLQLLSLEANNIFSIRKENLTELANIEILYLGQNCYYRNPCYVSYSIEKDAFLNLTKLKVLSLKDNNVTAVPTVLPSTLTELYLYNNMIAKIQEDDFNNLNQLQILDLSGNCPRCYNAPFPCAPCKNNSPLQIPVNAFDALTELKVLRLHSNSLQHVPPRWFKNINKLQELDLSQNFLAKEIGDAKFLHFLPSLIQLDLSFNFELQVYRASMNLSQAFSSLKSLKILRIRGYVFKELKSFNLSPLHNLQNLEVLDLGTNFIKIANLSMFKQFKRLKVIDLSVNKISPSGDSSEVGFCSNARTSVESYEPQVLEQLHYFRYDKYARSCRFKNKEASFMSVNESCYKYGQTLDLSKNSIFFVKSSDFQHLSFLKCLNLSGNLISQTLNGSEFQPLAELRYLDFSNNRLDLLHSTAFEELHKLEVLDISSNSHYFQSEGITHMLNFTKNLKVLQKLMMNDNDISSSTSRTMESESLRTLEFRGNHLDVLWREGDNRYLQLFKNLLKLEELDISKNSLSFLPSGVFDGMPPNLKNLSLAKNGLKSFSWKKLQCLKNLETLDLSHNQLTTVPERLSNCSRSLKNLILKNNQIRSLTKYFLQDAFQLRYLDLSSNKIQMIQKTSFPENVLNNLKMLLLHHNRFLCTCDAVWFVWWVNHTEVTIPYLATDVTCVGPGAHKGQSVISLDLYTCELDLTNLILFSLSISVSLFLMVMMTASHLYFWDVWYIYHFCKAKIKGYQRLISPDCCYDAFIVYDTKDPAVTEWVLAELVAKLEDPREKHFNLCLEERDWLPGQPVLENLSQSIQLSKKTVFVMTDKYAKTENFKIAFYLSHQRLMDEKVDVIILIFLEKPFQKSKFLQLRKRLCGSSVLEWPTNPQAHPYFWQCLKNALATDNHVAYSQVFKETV
In words: co-IP; HEK293T cells co-transfected with Flag-TLR7 or Flag-TAB1 and HRS-Myc (or dFYVE-Myc); cell lysates immunoprecipitated with anti-Flag or anti-Myc antibodies; Western blot.

A further assay addresses T3, Flag-TAB1 (human) (UniProt Q15750).
T3 sequence: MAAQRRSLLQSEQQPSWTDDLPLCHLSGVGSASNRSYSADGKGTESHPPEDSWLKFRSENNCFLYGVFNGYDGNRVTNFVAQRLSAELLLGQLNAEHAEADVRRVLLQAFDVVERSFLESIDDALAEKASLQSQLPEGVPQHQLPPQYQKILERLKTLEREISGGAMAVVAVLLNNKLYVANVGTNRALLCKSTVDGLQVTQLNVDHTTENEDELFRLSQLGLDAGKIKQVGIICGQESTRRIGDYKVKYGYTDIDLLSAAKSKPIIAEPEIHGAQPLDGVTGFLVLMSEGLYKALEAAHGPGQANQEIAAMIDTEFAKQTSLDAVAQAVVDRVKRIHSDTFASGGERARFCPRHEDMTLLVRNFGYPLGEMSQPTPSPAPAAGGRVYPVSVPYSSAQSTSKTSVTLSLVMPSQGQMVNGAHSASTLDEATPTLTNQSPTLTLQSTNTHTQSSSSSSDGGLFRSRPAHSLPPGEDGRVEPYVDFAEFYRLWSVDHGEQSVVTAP
The assay is described as above.

The target in assay [4] is T4, VN-173-TAB1 fusion protein (human) (UniProt Q15750).
T4 sequence: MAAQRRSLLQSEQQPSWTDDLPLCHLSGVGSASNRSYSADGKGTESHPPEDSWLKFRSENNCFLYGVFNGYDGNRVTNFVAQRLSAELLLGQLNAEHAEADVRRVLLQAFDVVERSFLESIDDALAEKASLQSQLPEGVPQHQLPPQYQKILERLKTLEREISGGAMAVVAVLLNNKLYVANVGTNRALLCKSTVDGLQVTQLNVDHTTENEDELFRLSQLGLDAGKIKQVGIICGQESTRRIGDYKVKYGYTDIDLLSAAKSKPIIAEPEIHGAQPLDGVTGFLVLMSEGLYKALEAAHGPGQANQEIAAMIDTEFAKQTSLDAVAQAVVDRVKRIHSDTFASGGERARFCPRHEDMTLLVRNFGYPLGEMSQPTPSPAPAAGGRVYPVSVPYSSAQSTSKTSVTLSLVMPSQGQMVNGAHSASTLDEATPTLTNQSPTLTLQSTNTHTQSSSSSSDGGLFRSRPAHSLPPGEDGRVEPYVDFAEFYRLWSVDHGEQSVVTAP
In words: split reporter; BiFC with Venus YFP fragments VN-173 and VC-155 in living HEK293T cells, 24 h after transfection, pre-cultured at 4 °C for 10 min; confocal microscopy.

Assay [5] addresses T5, VN-173-TLR7 fusion protein (human) (UniProt Q9NYK1).
T5 sequence: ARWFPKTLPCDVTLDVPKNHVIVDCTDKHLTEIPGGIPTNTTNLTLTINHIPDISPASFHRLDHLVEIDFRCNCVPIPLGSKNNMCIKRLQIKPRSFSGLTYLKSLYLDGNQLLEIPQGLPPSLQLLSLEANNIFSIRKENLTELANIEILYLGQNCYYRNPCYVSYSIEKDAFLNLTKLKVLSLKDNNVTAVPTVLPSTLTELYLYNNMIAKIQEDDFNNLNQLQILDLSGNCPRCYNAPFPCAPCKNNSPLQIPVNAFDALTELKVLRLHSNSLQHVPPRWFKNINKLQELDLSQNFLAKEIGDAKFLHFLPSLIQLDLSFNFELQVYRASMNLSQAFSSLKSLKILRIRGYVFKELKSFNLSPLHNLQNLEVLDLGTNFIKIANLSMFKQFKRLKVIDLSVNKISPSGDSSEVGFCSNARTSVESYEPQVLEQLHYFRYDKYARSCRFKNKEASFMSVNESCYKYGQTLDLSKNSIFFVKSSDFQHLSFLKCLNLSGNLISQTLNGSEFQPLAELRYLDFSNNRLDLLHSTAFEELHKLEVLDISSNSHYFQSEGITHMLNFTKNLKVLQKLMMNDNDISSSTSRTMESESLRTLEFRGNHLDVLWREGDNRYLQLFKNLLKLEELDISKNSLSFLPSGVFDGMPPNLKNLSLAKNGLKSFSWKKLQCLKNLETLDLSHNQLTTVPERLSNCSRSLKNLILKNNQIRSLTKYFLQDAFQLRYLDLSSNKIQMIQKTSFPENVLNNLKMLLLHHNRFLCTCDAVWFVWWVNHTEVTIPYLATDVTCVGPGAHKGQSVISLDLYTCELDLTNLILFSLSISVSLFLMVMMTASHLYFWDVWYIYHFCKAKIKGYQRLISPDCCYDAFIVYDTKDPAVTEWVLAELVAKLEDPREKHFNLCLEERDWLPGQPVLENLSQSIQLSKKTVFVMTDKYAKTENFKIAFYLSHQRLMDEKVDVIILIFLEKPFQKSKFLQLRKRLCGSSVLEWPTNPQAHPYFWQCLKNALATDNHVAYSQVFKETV
The assay is described as above.

Results are given in words; binding and its absence hold for the method and conditions named. In cells and extracts the contact can be indirect. Some results given as binding are weak or reduced against the parent protein; the word gives no strength. For part of these data: Where a sequence is shown, tags or fusion partners need not be part of it.

In the case of “HRS (endogenous) (from UniProt O14964-1 1-777)”, the binding result in assay [1] and in assay [2] was “binds” each time.
In the case of “HRS-Myc fusion protein (hepatocyte growth factor-regulated tyrosine kinase substrate) (from UniProt O14964-1 1-777)”, the binding entry (in assay [3]; with Flag-TAB1 (human)) was “binds” in each case.
For the substance “VC-155-HRS fusion protein (from UniProt O14964-1 1-777)”, the binding result in assay [4] and in assay [5] was “binds” in each case.
